Some of the results follow. The data scatter; read single values as rough.
What follows are targets tested with ClCC(=O)N[C@@H]1CCCc2ccccc12 (assay: log2 mean competition ratio of IA-DTB cysteine labelling (DMSO/compound) (log2 ratio); higher = stronger cysteine engagement by compound). Settings: 50 µM; treatment time: 4 h; cell line lysate: HEK293T.
Method: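 IA-DTB competitive cysteine chemoproteomics in HEK293T RIPA lysate. Lysates were treated with compound 29 or 30 at 50 or 200 µM for 4 h, then IA-DTB (500 µM, 1 h), trypsin-digested, NeutrAvidin-enriched and analysed by diaPASEF. Competition ratio = intensity DMSO / intensity compound (n=4 treated, n=64 DMSO); binding: mean log2 CR ≥ 1 and p ≤ 0.05 plus QC filters. Target is the cysteine site.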

Sequences of proteins named here, by UniProt entry; tags and fusion partners are left off. A change or cut given only in a name is not applied to a line headed by its entry. Residues count along the entry.
UniProt Q5THK1: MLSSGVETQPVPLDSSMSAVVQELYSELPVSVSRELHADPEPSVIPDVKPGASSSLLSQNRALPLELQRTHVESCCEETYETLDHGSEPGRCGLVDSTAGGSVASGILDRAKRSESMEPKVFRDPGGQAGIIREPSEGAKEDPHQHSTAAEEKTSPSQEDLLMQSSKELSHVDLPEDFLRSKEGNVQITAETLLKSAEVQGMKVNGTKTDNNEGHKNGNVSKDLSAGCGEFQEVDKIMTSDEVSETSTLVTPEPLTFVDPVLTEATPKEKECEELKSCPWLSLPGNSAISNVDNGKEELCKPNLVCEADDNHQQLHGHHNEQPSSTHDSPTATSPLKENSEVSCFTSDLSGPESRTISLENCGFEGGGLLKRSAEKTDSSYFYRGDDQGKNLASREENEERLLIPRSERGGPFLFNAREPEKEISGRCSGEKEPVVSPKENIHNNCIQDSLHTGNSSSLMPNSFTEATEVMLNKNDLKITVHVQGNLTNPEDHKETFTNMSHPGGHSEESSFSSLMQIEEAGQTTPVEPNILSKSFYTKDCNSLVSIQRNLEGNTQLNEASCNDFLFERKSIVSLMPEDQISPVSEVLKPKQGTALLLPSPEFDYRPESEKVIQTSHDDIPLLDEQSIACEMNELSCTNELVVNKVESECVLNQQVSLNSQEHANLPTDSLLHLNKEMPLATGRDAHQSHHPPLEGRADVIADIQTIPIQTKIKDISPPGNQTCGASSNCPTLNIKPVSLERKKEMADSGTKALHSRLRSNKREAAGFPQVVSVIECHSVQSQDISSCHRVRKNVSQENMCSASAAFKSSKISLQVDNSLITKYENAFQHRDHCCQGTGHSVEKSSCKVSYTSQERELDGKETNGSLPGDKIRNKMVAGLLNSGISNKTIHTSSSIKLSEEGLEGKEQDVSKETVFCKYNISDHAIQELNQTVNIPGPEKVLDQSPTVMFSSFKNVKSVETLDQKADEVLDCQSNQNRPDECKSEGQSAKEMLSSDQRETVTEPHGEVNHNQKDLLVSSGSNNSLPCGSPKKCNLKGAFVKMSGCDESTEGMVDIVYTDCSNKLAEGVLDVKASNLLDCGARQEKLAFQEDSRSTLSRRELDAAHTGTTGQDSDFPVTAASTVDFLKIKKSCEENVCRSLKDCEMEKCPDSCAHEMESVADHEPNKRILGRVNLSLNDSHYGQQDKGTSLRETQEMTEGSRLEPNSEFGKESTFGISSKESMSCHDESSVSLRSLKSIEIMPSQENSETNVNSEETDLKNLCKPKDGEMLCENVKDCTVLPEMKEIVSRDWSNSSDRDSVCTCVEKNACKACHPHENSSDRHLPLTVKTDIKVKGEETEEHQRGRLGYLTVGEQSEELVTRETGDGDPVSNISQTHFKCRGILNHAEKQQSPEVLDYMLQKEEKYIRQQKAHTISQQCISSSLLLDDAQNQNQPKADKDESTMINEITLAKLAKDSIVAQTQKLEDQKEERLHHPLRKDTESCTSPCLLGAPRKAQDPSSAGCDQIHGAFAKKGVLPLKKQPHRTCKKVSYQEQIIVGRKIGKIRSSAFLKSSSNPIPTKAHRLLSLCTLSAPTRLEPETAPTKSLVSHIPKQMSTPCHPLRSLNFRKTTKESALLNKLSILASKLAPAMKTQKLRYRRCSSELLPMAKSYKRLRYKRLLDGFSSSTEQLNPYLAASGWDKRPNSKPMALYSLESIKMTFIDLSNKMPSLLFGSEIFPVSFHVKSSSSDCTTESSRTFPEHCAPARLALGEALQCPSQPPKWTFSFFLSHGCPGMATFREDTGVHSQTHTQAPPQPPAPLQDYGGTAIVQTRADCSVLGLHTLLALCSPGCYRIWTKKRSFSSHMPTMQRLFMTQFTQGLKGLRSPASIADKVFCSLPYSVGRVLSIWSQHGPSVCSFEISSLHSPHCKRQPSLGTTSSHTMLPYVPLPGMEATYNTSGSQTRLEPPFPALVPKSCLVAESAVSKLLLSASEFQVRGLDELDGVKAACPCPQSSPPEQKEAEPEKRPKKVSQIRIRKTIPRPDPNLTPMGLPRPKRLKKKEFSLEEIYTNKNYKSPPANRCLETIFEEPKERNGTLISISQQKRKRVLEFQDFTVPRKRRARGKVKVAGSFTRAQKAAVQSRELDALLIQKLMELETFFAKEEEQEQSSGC
UniProt P43378: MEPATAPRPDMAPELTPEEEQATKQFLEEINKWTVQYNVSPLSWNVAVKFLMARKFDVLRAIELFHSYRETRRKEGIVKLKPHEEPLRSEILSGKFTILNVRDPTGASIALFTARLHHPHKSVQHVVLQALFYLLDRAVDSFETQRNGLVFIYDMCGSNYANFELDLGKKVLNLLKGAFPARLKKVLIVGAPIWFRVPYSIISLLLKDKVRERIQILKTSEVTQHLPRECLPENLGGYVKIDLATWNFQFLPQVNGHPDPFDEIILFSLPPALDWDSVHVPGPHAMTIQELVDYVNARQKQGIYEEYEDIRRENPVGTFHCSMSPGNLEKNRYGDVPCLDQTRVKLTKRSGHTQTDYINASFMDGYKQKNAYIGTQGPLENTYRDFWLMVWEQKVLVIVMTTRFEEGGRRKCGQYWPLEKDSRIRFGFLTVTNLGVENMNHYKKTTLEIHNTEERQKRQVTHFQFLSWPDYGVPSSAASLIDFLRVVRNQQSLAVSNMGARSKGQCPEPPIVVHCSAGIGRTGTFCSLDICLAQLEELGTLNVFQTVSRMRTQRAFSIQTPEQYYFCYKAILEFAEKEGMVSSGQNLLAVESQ
UniProt Q9H5N1: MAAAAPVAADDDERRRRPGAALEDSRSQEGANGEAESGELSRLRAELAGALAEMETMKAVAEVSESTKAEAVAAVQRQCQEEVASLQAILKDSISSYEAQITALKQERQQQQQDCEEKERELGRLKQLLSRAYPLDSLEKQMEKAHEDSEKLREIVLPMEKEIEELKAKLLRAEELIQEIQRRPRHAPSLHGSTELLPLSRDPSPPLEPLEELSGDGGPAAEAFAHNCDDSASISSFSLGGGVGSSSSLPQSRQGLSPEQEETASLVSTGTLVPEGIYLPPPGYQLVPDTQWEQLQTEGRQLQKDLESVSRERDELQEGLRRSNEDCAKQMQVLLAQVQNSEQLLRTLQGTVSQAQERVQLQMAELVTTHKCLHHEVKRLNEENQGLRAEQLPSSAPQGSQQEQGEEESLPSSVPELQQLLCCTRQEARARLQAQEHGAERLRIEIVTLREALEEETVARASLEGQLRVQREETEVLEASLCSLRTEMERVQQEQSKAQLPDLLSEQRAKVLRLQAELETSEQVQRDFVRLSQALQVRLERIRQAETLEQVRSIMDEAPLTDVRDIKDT
UniProt Q06323: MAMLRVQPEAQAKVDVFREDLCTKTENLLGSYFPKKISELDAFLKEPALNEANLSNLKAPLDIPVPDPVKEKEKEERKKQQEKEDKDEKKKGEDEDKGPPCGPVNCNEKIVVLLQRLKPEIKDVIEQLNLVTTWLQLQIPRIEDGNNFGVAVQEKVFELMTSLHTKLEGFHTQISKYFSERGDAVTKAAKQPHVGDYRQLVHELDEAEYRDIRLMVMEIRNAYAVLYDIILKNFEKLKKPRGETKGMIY
UniProt Q3YEC7: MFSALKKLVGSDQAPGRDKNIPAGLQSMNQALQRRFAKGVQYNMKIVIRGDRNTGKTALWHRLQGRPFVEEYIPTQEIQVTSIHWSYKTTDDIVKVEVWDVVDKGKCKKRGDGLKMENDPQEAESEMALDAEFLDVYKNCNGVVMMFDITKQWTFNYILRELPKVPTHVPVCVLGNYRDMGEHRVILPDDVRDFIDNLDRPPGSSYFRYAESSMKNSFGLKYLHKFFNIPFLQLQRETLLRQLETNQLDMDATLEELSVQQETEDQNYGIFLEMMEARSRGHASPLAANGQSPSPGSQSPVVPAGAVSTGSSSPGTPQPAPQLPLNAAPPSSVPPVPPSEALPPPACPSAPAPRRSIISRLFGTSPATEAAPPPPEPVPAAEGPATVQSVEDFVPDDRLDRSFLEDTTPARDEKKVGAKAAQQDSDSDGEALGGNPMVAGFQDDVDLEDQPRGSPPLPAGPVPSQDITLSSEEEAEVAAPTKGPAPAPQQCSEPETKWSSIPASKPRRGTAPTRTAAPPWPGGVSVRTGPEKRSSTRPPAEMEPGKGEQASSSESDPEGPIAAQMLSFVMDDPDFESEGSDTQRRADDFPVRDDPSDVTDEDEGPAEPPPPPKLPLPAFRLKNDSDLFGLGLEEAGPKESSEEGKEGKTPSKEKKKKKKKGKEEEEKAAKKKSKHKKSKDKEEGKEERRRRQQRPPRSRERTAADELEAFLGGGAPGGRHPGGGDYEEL
UniProt Q7Z6M1: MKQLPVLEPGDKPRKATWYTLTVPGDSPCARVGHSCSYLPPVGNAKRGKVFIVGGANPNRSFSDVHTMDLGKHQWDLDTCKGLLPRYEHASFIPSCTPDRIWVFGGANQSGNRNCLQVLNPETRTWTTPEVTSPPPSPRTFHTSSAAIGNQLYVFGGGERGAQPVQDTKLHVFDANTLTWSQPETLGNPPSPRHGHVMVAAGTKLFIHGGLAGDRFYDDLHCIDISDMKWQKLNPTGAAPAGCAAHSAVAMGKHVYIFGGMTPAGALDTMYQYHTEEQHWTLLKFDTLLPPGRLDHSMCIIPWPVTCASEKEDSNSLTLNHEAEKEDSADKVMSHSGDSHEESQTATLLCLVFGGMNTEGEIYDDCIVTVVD
UniProt Q99436: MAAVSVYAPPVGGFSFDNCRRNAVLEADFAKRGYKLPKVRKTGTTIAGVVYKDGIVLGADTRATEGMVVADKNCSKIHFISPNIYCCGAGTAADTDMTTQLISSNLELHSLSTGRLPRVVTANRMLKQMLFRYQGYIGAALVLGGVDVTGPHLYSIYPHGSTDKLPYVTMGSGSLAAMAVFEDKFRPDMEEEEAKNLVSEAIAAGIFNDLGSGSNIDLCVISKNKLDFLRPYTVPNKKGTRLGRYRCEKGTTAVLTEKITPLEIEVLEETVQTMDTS
UniProt Q93096: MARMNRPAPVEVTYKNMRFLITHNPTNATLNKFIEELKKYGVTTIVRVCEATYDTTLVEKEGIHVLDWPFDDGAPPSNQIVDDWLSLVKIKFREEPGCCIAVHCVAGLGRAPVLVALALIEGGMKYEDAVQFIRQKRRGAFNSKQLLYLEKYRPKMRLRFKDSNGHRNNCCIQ
UniProt Q9P2W1: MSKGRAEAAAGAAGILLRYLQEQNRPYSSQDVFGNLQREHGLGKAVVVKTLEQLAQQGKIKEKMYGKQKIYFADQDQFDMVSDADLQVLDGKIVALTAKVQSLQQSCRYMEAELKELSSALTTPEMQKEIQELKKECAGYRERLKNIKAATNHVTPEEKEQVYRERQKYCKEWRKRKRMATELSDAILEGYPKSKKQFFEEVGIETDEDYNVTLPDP
UniProt Q9Y620: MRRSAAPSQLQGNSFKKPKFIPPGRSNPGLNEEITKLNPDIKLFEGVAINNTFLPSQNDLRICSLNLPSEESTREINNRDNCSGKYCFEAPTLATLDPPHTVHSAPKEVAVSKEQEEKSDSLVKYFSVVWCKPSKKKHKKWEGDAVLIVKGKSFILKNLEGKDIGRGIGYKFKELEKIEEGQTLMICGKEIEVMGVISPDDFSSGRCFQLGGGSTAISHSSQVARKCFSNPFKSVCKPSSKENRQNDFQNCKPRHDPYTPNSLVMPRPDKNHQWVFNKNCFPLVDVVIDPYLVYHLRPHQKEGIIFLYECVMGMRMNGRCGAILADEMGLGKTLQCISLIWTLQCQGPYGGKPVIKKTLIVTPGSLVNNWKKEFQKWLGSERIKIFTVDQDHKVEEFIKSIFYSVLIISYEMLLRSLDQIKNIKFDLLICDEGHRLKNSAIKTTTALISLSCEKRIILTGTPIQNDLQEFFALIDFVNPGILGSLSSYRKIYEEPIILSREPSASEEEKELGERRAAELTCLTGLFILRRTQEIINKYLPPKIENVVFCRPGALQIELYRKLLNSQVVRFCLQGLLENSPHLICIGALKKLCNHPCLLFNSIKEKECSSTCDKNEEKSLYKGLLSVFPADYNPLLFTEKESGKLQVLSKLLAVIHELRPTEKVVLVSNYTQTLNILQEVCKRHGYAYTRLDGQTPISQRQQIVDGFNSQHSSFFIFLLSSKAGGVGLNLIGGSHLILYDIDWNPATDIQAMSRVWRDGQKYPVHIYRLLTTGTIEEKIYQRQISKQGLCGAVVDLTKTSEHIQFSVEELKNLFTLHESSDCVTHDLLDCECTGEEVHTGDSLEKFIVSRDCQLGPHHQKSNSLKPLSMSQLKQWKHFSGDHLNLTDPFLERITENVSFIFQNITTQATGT
UniProt P28066, 67-86: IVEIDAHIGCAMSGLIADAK

PRR14L C1730 (UniProt Q5THK1) was tested. Which “log2 mean competition ratio” value did it give?
The value was 0.0323.

RAB34 C19 was tested. Which “log2 mean competition ratio” value did it give?
Its value is -0.154.

PTPN9 C230 (UniProt P43378) was tested. Which “log2 mean competition ratio” value did it give?
The value was -0.206.

Which “log2 mean competition ratio” value does the source give for RABEP2 C482 (UniProt Q9H5N1) here?
Its value is 0.061.

How did the “log2 mean competition ratio” value turn out when PSME1 C22 (UniProt Q06323) was run?
The value was -0.119.

RABL6 C491 (UniProt Q3YEC7) was tested. Which “log2 mean competition ratio” value did it give?
The value was -0.211.

PYGO1 C317 was tested. Which “log2 mean competition ratio” value did it give?
The value was -0.462.

QARS1 C298, A0A0U1RR66 was tested. Which “log2 mean competition ratio” value did it give?
Its value is 0.36.

Which “log2 mean competition ratio” value does the source give for RAD50 C221 here?
The value was -0.00832.

For RAB11FIP2 C384, which “log2 mean competition ratio” value is on record?
Its value is -0.227.

Which “log2 mean competition ratio” value does the source give for PSMD1 C898 here?
Its value is -0.143.

Which “log2 mean competition ratio” value does the source give for PTPN13 C2024 (UniProt Q12923) here?
The value was 0.219.

With RABEPK C115 (UniProt Q7Z6M1) as the target, how does the “log2 mean competition ratio” value read?
Its value is -0.0409.

PSMB7 C74 (UniProt Q99436) was tested. Which “log2 mean competition ratio” value did it give?
The value was 0.024.

PRR14L C1503 (UniProt Q5THK1) was tested. Which “log2 mean competition ratio” value did it give?
The value was 0.121.

For QARS1 C556, A0A0U1RR66, which “log2 mean competition ratio” value is on record?
The value was 0.427.

Which “log2 mean competition ratio” value does the source give for PTP4A1 C49 (UniProt Q93096) here?
The value was 0.0799.

How did the “log2 mean competition ratio” value turn out when PSMC3IP C107 (UniProt Q9P2W1) was run?
The value was 0.23.

For RAD54B C851 (UniProt Q9Y620), which “log2 mean competition ratio” value is on record?
The value was -0.0224.

PSMA5 C76 (UniProt P28066) was tested. Which “log2 mean competition ratio” value did it give?
The value was -0.045.

Same assay, conditions: 200 µM; treatment time: 4 h; cell line lysate: HEK293T

Which “log2 mean competition ratio” value does the source give for PRR14L C1730 (UniProt Q5THK1) here?
The value was -0.0589.

Which “log2 mean competition ratio” value does the source give for RAB34 C19 here?
Its value is -0.143.

With PTPN9 C230 (UniProt P43378) as the target, how does the “log2 mean competition ratio” value read?
The value was -0.16.

For RABEP2 C482 (UniProt Q9H5N1), which “log2 mean competition ratio” value is on record?
The value was 0.00266.

Which “log2 mean competition ratio” value does the source give for PSME1 C22 (UniProt Q06323) here?
Its value is 0.25.

For RABL6 C491 (UniProt Q3YEC7), which “log2 mean competition ratio” value is on record?
The value was 0.321.

With PYGO1 C317 as the target, how does the “log2 mean competition ratio” value read?
The value was -0.0192.

How did the “log2 mean competition ratio” value turn out when QARS1 C298, A0A0U1RR66 was run?
Its value is -0.0739.

With RAD50 C221 as the target, how does the “log2 mean competition ratio” value read?
The value was -0.0742.

Which “log2 mean competition ratio” value does the source give for RAB11FIP2 C384 here?
Its value is -0.0667.

PSMD1 C898 was tested. Which “log2 mean competition ratio” value did it give?
The value was 0.0481.

PTPN13 C2024 (UniProt Q12923) was tested. Which “log2 mean competition ratio” value did it give?
Its value is 0.0299.

For RABEPK C115 (UniProt Q7Z6M1), which “log2 mean competition ratio” value is on record?
Its value is -0.0617.

Which “log2 mean competition ratio” value does the source give for PSMB7 C74 (UniProt Q99436) here?
The value was 0.0905.

PRR14L C1503 (UniProt Q5THK1) was tested. Which “log2 mean competition ratio” value did it give?
Its value is 0.0271.

For QARS1 C556, A0A0U1RR66, which “log2 mean competition ratio” value is on record?
The value was 0.102.

For PTP4A1 C49 (UniProt Q93096), which “log2 mean competition ratio” value is on record?
The value was 0.152.

For PSMC3IP C107 (UniProt Q9P2W1), which “log2 mean competition ratio” value is on record?
Its value is 0.141.

Which “log2 mean competition ratio” value does the source give for RAD54B C851 (UniProt Q9Y620) here?
Its value is -0.242.

For PSMA5 C76 (UniProt P28066), which “log2 mean competition ratio” value is on record?
Its value is 0.465.

— the supplement of paper PMC11732987, “Enantioselective OTUD7B fragment discovery through chemoproteomics screening and high-throughput optimisation” (Communications Chemistry, 2025)
